Source: patent publication US7109360B1, “16-hydroxyestratrienes as selectively active estrogens” (priority 1999, dated 2006)
At least one structure is not confirmed: it was looked up by name or label, or the drawing left a doubt.

System: estrogen receptor preparations of rat prostates
Assay: Competitive 3H-estradiol binding to estrogen receptor of rat prostate cytosol
Conditions: estradiol = 100

C[C@]12CC[C@@H]3c4ccc(O)cc4CC[C@H]3[C@@H]1CC[C@@H]2O [Estradiol]
Rat prost. ER (RBA) (Table 1, 3H-estradiol as ligand): 100
Rat prost. ER (RBA) (Table 2): 100
